According to patent EP4621409A1, “NOVEL ANTIVIRAL PEPTIDE” (Daehannupharm Co., Ltd., priority 2022, dated 2024):
Not every detail of the peptide structures is certain; ends, links or a residue may be inferred. Some compounds share one wording; it may come from a single statement. Some of these results come from one statement about several compounds together. No end group written: not given here.

Test: Liposome leakage assay (6-carboxyfluorescein encapsulated liposomes)
Type: biochemical
Conditions: peptide diluted to 500 nM mixed 1:1 with liposome solution (55 nm, POPC 20 µM); fluorescence for 20 minutes; FIGS. 3 to 25

Row | Compound | leakage of the fluorescent substance encapsulated in the liposome
1 | CC[C@H](C)[C@H](NC(=O)[C@H](CCCNC(=N)N)NC(=O)CNC(=O)[C@H](CC(C)C)NC(=O)[C@H](CC(C)C)NC(=O)[C@H](CO)NC(=O)[C@H](Cc1ccccc1)NC(=O)[C@H](CC(C)C)NC(=O)[C@H](CCC(=O)O)NC(=O)[C@H](CCCNC(=N)N)NC(=O)[C@H](Cc1ccccc1)NC(=O)[C@@H](NC(=O)[C@H](CCC(=O)O)NC(=O)[C@H](CO)NC(=O)[C@@H](N)Cc1c[nH]c2ccccc12)[C@@H](C)CC)C(=O)N[C@@H](Cc1c[nH]c2ccccc12)C(=O)N[C@@H](CO)C(=O)N[C@@H](CO)C(=O)O [SP-043, WSEIFRELFSLLGRIWSS] | leaked out of the liposome
2 | AKNIIKLLLELIEVILNV [SP-144, AKNIIKLLLELIEVILNV] | leaked out of the liposome
3 | ALLIYFRRDWVDLIGGWL [SP-147, ALLIYFRRDWVDLIGGWL] | leaked out of the liposome
4 | DEFLDFAALLFGWFRKFV [SP-152, DEFLDFAALLFGWFRKFV] | leaked out of the liposome
5 | DEILGRLLKILFVLFVDL [SP-153, DEILGRLLKILFVLFVDL] | leaked out of the liposome
6 | DIIKDFAKFFTIFFGITF [SP-166, DIIKDFAKFFTIFFGITF] | leaked out of the liposome
7 | DIWVNVLVSFITLLREWR [SP-170, DIWVNVLVSFITLLREWR] | leaked out of the liposome
8 | DLIHIILDKIIDTLVHFM [SP-176, DLIHIILDKIIDTLVHFM] | leaked out of the liposome
9 | DWQALWEELKSIFVFWIN [SP-180, DWQALWEELKSIFVFWIN] | leaked out of the liposome
10 | EALMLIYKLFWDEFSSWL [SP-184, EALMLIYKLFWDEFSSWL] | leaked out of the liposome
11 | EDILFSILYLLKKIANLI [SP-172, EDILFSILYLLKKIANLI] | leaked out of the liposome
12 | EEIAVILRIMEKLWHVFM [SP-186, EEIAVILRIMEKLWHVFM] | leaked out of the liposome
13 | EFWNRWHMSLSFWFRDFV [SP-188, EFWNRWHMSLSFWFRDFV] | leaked out of the liposome
14 | EILGAFFHKFEKFFDLFM [SP-036, EILGAFFHKFEKFFDLFM] | leaked out of the liposome
15 | EILREFMTLISHIWSQIK [SP-194, EILREFMTLISHIWSQIK] | leaked out of the liposome
16 | ENWKDFFLIFWQKYFNVW [SP-198, ENWKDFFLIFWQKYFNVW] | leaked out of the liposome
17 | EQFLDYIGKLLFKIFMTI [SP-059, EQFLDYIGKLLFKIFMTI] | leaked out of the liposome
18 | ESIWEFIKSLLDAWSGWV [SP-181, ESIWEFIKSLLDAWSGWV] | leaked out of the liposome
19 | EYIDNIIEYIINILKLTI [SP-206, EYIDNIIEYIINILKLTI] | leaked out of the liposome
20 | FAKDIWRIILTAWFAGLAD (FAKDIWRILTAWFAGLAD; source 1..18: note = antiviral peptide candidate (or antiviral peptide)) [SP-208] | leaked out of the liposome
21 | FAKDIWRILVAWTTTLWD [SP-210, FAKDIWRILVAWTTTLWD] | leaked out of the liposome
22 | FDFFKIVGEIFGLFENYF [SP-062, FDFFKIVGEIFGLFENYF] | leaked out of the liposome
23 | FDFIEKFSHVLFDIVGII [SP-026, FDFIEKFSHVLFDIVGII] | leaked out of the liposome

Row | Compound | leakage of the fluorescent substance encapsulated in the liposome
24 | FFDFFVEDFSRWYIQIIR [SP-215, FFDFFVEDFSRWYIQIIR] | leaked out of the liposome
25 | FFEKIMSHIKNLLEWLGV [SP-219, FFEKIMSHIKNLLEWLGV] | leaked out of the liposome
26 | FFSMVRDLLSWMESIIRQ [SP-240, FFSMVRDLLSWMESIIRQ] | leaked out of the liposome
27 | FLDALLKILEGWLYTYAK [SP-109, FLDALLKILEGWLYTYAK] | leaked out of the liposome
28 | FLEDVVIYISRLLRLWIS [SP-228, FLEDVVIYISRLLRLWIS] | leaked out of the liposome
29 | FRMFIGDLEKIVNLLLSL [SP-154, FRMFIGDLEKIVNLLLSL] | leaked out of the liposome
30 | FRYLIEAINSFVKVFELW [SP-162, FRYLIEAINSFVKVFELW] | leaked out of the liposome
31 | FSELLRLTRTLLGIIDCI [SP-127, FSELLRLTRTLLGIIDCI] | leaked out of the liposome
32 | FTNFHRQLFCWIDKWIDL [SP-191, FTNFHRQLFCWIDKWIDL] | leaked out of the liposome
33 | FWEIFVVWLKQFIDIENS [SP-182, FWEIFVVWLKQFIDIENS] | leaked out of the liposome
34 | FWMGVIGFLDDYMKVVLK [SP-237, FWMGVIGFLDDYMKVVLK] | leaked out of the liposome
35 | FWRRHVFIWISFIDSYFE [SP-104, FWRRHVFIWISFIDSYFE] | leaked out of the liposome
36 | GGFWDSIKALWRNLIDFL [SP-055, GGFWDSIKALWRNLIDFL] | leaked out of the liposome
37 | GILINVINDFERQWLRIF [SP-119, GILINVINDFERQWLRIF] | leaked out of the liposome
38 | GKIFKVLYDSFMLLWNEW [SP-105, GKIFKVLYDSFMLLWNEW] | leaked out of the liposome
39 | GLLEIIVILWKNIHRSLE [SP-122, GLLEIIVILWKNIHRSLE] | leaked out of the liposome
40 | GLQNFLEWVVDFIRGIIK [SP-120, GLQNFLEWVVDFIRGIIK] | leaked out of the liposome
41 | GWFGFISDAMELVLKILK [SP-106, GWFGFISDAMELVLKILK] | leaked out of the liposome
42 | HEVLDFLDNLMISIFKIL [SP-075, HEVLDFLDNLMISIFKIL] | leaked out of the liposome
43 | HEVMEFIEKLFLYIFKTI [SP-243, HEVMEFIEKLFLYIFKTI] | leaked out of the liposome
44 | HLLKDWTDTFVYILEKLI [SP-244, HLLKDWTDTFVYILEKLI] | leaked out of the liposome
45 | HWSKLLEEIQALIKLLLA [SP-246, HWSKLLEEIQALIKLLLA] | leaked out of the liposome
46 | IDILIRFYHLFESIYKYI [SP-029, IDILIRFYHLFESIYKYI] | leaked out of the liposome

Row | Compound | leakage of the fluorescent substance encapsulated in the liposome
47 | IEHLEQLFWRIFRNIVLF [SP-248, IEHLEQLFWRIFRNIVLF] | leaked out of the liposome
48 | IFLYLVDQIYDIIRMIEK [SP-111, IFLYLVDQIYDIIRMIEK] | leaked out of the liposome
49 | IIGWIDHFQNWLEKLHKL [SP-251, IIGWIDHFQNWLEKLHKL] | leaked out of the liposome
50 | IIISLLKQLLKTYGDLID [SP-253, IIISLLKQLLKTYGDLID] | leaked out of the liposome
51 | ILADILVKLLDEIKYILK [SP-173, ILADILVKLLDEIKYILK] | leaked out of the liposome
52 | ILKDLLHWFKTQFFTWFD [SP-257, ILKDLLHWFKTQFFTWFD] | leaked out of the liposome
53 | ILLKFLESVGGVLLDILR [SP-155, ILLKFLESVGGVLLDILR] | leaked out of the liposome
54 | ILVSQWVEYLKIFENFFK [SP-218, ILVSQWVEYLKIFENFFK] | leaked out of the liposome
55 | INDLFSEILMSFLKFLDL [SP-229, INDLFSEILMSFLKFLDL] | leaked out of the liposome
56 | IQVFADVFKMLIKEIITI [SP-249, IQVFADVFKMLIKEIITI] | leaked out of the liposome
57 | IRTLFDEITRILNHLLWL [SP-130, IRTLFDEITRILNHLLWL] | leaked out of the liposome
58 | IRVMFDEITRILNHLLGI [SP-262, IRVMFDEITRILNHLLGI] | leaked out of the liposome
59 | IVLEIIHHFVEILDRYFG [SP-204, IVLEIIHHFVEILDRYFG] | leaked out of the liposome
60 | IWRRWLYVLWDEVAQLVN [SP-260, IWRRWLYVLWDEVAQLVN] | leaked out of the liposome
61 | IYIFFRHWTTIYERLLEI [SP-268, IYIFFRHWTTIYERLLEI] | leaked out of the liposome
62 | KDIITVIAKYFGFIIEFL [SP-211, KDIITVIAKYFGFIIEFL] | leaked out of the liposome
63 | KEFFTELFILLKSIFSFV [SP-270, KEFFTELFILLKSIFSFV] | leaked out of the liposome
64 | KILDQWFFRITAYIDELL [SP-267, KILDQWFFRITAYIDELL] | leaked out of the liposome
65 | KILNQITLFWMDMFKDII [SP-272, KILNQITLFWMDMFKDII] | leaked out of the liposome
66 | KIMFTFVKELLNYLDGFI [SP-201, KIMFTFVKELLNYLDGFI] | leaked out of the liposome
67 | KLFSKLIDILDDYYVLLV [SP-273, KLFSKLIDILDDYYVLLV] | leaked out of the liposome
